# Results as given in ChEMBL document CHEMBL1132410, “5-Chloro-N-(4-methoxy-3-piperazin-1-yl- phenyl)-3-methyl-2-benzothiophenesulfon- amide (SB-271046): a potent, selective, and orally bioavailable 5-HT6 receptor antagonist” (J Med Chem, 1999).
# Sequences of proteins named here, by UniProt entry; tags and fusion partners are left off.
# UniProt P50406, whole entry: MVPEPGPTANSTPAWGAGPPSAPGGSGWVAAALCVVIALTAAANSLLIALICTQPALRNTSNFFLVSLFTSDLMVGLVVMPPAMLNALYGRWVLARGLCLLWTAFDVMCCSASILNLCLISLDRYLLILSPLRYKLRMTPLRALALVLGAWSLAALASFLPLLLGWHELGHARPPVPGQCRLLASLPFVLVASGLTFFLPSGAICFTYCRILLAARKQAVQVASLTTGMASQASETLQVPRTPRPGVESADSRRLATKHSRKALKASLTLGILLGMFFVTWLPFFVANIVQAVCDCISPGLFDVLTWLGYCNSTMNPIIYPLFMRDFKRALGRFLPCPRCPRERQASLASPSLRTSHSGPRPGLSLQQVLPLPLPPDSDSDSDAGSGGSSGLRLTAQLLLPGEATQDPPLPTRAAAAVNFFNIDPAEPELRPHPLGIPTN
# Molecular target: 5-hydroxytryptamine receptor 6 (Homo sapiens, UniProt P50406)
# Test: Binding affinity against human cloned 5-hydroxytryptamine 6 receptor in HeLa cells using [3H]LSD
# Format: cell-based
# In short: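 Radioligand binding at human cloned receptors; cell hosts and radioligands as listed per line: 5-HT1A, 5-HT2A, 5-HT2B, 5-HT2C and 5-HT7 in HEK 293 cells; 5-HT1B, 5-HT1D, 5-HT1E, 5-HT1F, D2 and D3 in CHO cells; 5-HT6 in HeLa cells. Values are the mean of at least two determinations, each within 0.2 log unit of the mean.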
structure (smiles),measurement,value
COc1ccc(NS(=O)(=O)c2ccc(I)cc2)cc1N1CCN(C)CC1,Ki,2.51 nM
